Data from US20180072803A1.
No constants are given. Whether binding was seen depends on the method and setting. Some results given as binding are weak or reduced against the parent protein; the word gives no strength.

By UniProt entry, the sequences of proteins in these tests, tags left out. Residues count along the entry.
UniProt P35052, residues 24-530: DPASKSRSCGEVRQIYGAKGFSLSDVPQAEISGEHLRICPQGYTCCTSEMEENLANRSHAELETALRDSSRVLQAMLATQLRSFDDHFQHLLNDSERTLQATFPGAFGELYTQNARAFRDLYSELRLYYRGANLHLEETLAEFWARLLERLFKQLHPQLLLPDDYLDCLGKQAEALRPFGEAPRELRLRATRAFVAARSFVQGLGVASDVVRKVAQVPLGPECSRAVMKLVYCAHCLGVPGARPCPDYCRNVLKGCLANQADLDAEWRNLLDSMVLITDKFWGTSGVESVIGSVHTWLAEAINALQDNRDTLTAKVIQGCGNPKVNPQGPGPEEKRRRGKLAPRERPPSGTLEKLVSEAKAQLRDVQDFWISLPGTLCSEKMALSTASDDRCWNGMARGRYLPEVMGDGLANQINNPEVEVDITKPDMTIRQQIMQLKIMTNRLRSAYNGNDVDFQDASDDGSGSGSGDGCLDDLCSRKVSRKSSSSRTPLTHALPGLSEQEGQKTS

Tests used:
[1] = biological target: MIL-38 antigen (GPC-1) as present in DU-145 and other cell lines (UniProt P35052); assay: immunofluorescence assay on T24 cells
[2] = biological target: MIL-38 antigen (GPC-1) as present in DU-145 and other cell lines (UniProt P35052); assay: immunofluorescence assay on DU145 cells
[3] = biological target: MIL-38 antigen (GPC-1) as present in DU-145 and other cell lines (UniProt P35052); assay: immunofluorescence assay on RWPE1 cells
[4] = biological target: MIL-38 antigen (GPC-1) as present in DU-145 and other cell lines (UniProt P35052); assay: immunofluorescence assay on cell lines
[5] = biological target: MIL-38 antigen (GPC-1) as present in DU-145 and other cell lines (UniProt P35052); assay: immunofluorescence assay on PZHPV7 cells
[6] = biological target: MIL-38 antigen (GPC-1) as present in DU-145 and other cell lines (UniProt P35052); assay: Western blot on MPEK extracts of cell lines (FIG. 1)
[7] = biological target: MIL-38 antigen (GPC-1) as present in DU-145 and other cell lines (UniProt P35052); assay: immunofluorescence assay on DU-145 cells (FIG. 5A)
[8] = biological target: recombinant human GPC-1 produced from NS0 cells (human) (UniProt P35052); assay: sandwich ELISA, antibody coated as capture, biotinylated AM-4 clone IF5 as detection (FIG. 6B)

B1: MIL-38 antibody preparation “Original” (1-O) from ATCC HB11785 hybridoma cells (antibody, mouse IgG1, kappa, V domains shown)
VH: QIQLVQSGPELKKPGETVKISCKASGYAFTDYSMNWVKQAPGKGLRWMGWINTETGEPTYTDDFKGRFAFSLETSASTAFLQINNLRNEDTATYFCARHYDYGGFPYWGQGTLVTVSA
VL: DIQMTQSPASLSASVGETVTITCRASGNVHNYLAWYQQKQGKSPQLLVYTAKTLADGVPSRFSGSGSGTQYSLKINSLQPEDFGTYYCQHFWSNPWTFGGGTKLEIKR
[1]
  binding: binds
[2]
  binding: binds
[3]
  binding: binds
[4]
  binding: binds
[5]
  binding: binds
[6]
  binding: binds

B2: MIL-38 antibody preparation Alfio I (antibody, mouse IgG1, kappa, V domains shown)
VH: B1 VH
VL: B1 VL
[7]
  binding: binds

B3: MIL-38 AM-4 clone IF5 (antibody, mouse IgG1, kappa, V domains shown)
VH: B1 VH
VL: B1 VL
[8]
  binding: binds
